Test results as given in patent publication US20130317134A1, “TISSUE ADHESIVE BASED ON TRIFUNCTIONAL ASPARTATES” (Bayer Intellectual Property GmbH Creative Campus Monheim, priority 2011, published 2013).

Assay: Tack free time, adhesion test using a glass rod
Procedure: The time after which the polyurea system was no longer tacky (tack free time) was measured by adhesion tests using a glass rod. To that end, the glass rod was brought into contact with the layer of the polyurea system. When the rod no longer adhered, the system was considered to be tack-free. In addition, the adhesive force was determined by coating two pieces of muscle tissue (1=4 cm, h=0.3 cm, b=1 cm) with the polyurea system 1 cm from the ends and adhesively bonding them so that they overlapped. The adhesive force of the polyurea system was tested in each case by pulling.

[1] = polyurea system of Prepolymer A with equivalent amount of curing agent
[2] = polyurea system of Prepolymer B with equivalent amount of curing agent

SMILES | Tack free time [1] [min] | Tack free time [2] [min] | time after which still not tack-free (reacted with prepolymer B, text of Comparison Example 1) [min]
CCOC(=O)CC(NCCCC(CCCNC(CC(=O)OCC)C(=O)OCC)CCCNC(CC(=O)OCC)C(=O)OCC)C(=O)OCC (centres unmarked) [Compound 3, Tetraethyl 2,2′-(4-(3-(1,4-diethoxy-1,4-dioxobutan-2-ylamino)propyl)heptane-1,7-diyl)bis-(azandiyl)disuccinate] | 2 | 2 | –
CCOC(=O)CC(NCCCC(C)CNC(CC(=O)OCC)C(=O)OCC)C(=O)OCC (centres unmarked) [Compound 4, tetraethyl 2,2′-[(2-methylpentane-1,5-diyl)diimino]dibutanoate] | – | >30 | > 10
CCOC(=O)CC(NCCCCC(CCCNC(CC(=O)OCC)C(=O)OCC)CNC(CC(=O)OCC)C(=O)OCC)C(=O)OCC (centres unmarked) [Compound 5, Diethyl 2-[(8-[(1,4-diethoxy-1,4-dioxobutan-2-yl)amino]-4-{[(1,4-diethoxy-1,4-dioxobutan-2-yl)-amino]methyl}octyl)amino]butanedioate] | 5 | – | –
